According to US6245791A, “Use of 2-amino-6-trifluoromethoxybenzothiazole for the prevention or treatment of cerebellar dysfunction” (Aventis Pharma S.A., priority 1998, dated 2001):

Columns and labels:
[1] = tested on: glutamate uptake in synaptosomes of rat cerebellum; conditions: read-out: half-maximum effective concentration (EC50) for increase in glutamate uptake; rat cerebellar synaptosomes, specific (sodium-dependent) uptake, 3 min at 37° C., pH 7.3, sigmoidal regression, n=8
[2] = tested on: glutamate uptake in preparations from cerebral cortex, striatum, spinal cord; conditions: striatum or spinal cord

Nc1nc2ccc(OC(F)(F)F)cc2s1 [riluzole, 2-amino-6-trifluoromethoxybenzothiazole]
EC50 [1]: 24.5 µM
increase in glutamate transport (result in words) [2]: not observed
